## Results of single-concentration screens

Measurements from “University of Dundee, Small-Polar-MMV Screening Library” (2021), ChEMBL document CHEMBL3988442.

The filed quantity is “Percent Effect” (%).
How 0% and 100% were set is not recorded. Most values in the screen are low, and negative values occur.
The compounds are a random part of those screened.
Two or more numbers in one place are separate tests of the same structure; such repeats can differ widely.

A: 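Growth of Mycobacterium tuberculosis over 3 days (7H9 medium with glucose and tyloxapol); the read-out is not stated. Concentration: 50 µM. Higher reads as more growth inhibition (inferred: compounds with an IC50 in retests scored well above the rest). Of about 69,000 compounds tested this way, about 760 (1.1%) reached 50% or more in at least one test.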
B: 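Growth of Mycobacterium tuberculosis over 4 days (cholesterol / DPPC medium with tyloxapol); the read-out is not stated. Concentration: 50 µM. The record gives no direction; compounds that gave an IC50 in retests scored well above the rest, so higher reads as more growth inhibition. Size under these conditions: about 69,000 compounds, about 370 of them at 50% or above in at least one test.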

structure	A	B
CN1CCN(S(=O)(=O)c2ccc(Cl)c(Cl)c2)c2cnccc21	1.448% & -36.2%	-7.541%
COc1ccc(CN(C(=O)CCC(C)C)c2cnn(C)c2)c(OC)c1	23.95% & 0.5957%	-3.373%
[H][C@]12CC[C@]([H])(CN(S(C)(=O)=O)C1)N(C(=O)CCc1n[nH]c3c1CCCC3)C2	-11.95%	-36.64%
COc1ccc(CN2CCCC2c2cccc(F)c2)c(OC)c1OC (centres unmarked)	4.08%	-12.42%
[H][C@@]12COC[C@@H](C(=O)NC)[C@]1([H])CN(C(=O)COc1ccccc1)C2	-1.617% & -18%	4.322%
CCn1c(C2CCNCC2)nn(CCn2cncn2)c1=O	-4.675%	7.682%
CC(=O)c1ccc(N2CCCC(CO)(Cc3ccccc3F)C2)nc1 (centres unmarked)	-18.23%	-6.362% & -16.3%
Cc1csc(C2CCCCN2C(=O)CCn2cncn2)n1 (centres unmarked)	-19.35%	-11.95%
CCc1cn[nH]c1C1CCCN(C(=O)c2cnc(NC(C)C)nc2)C1 (centres unmarked)	6.24%	11.39%
Cn1ncc2ccc(C3CCCN(C(=O)Cc4cccs4)C3)nc21 (centres unmarked)	-2.05%	13.79% & 21.75%
COCC1c2c(cnn2CC2CC2)CCN1Cc1ccc(OC)cc1 (centres unmarked)	0.7464%	-7.492%
O=C(CNC(=O)N1CCc2c([nH]c3ccc(Cl)cc23)C1)NC1CCCC1	-5.974%	-19.58%
[H][C@@]12OCCN(S(=O)(=O)c3cn(C)cn3)[C@@]1([H])CC[C@@H]2OCC1CC1	-20.74%	-13.94%
CC(C)c1cc(NCc2csc(N(C)C)n2)nc(N)n1	-3.686% & 6.964%	12.25%
COC1CCN(c2ccc(F)cc2CN(C)C(C)C(N)=O)CC1 (centres unmarked)	3.612%	-10.65%
C=C(C)Cn1nc(C)c(CN2CCN(C3CCCCC3)C(=O)C2)c1C	-0.4068%	-17.4% & -17.91%
[H][C@]12CN(Cc3nc(C)c[nH]3)CC[C@@]1(O)CCN(C(=O)C1CCC1)C2	-2.062% & -1.193%	-11.12%
CC(C)n1cc(CN2CCCN(C(=O)CC3CCCCC3)CC2)cn1	-0.4408% & 19.53%	-11.16%
CN1CCC(Oc2ccc(-n3ccnc3-c3ccncc3)cc2)CC1	-4.165% & -6.002%	-10.07%
Cc1cccc(Cn2ccc(NS(C)(=O)=O)n2)c1	32.35%	-2.233%
CCn1ncc(Nc2[nH]cnc3nc(C)nc2-3)c1C	10.42% & 25.54%	13.39%
Cc1nc2c(C)cccc2cc1C(=O)N1CCC2(CCNCC2)CC1	29.54%	10.73%
CC(C)NC(=O)[C@@H](NC(=O)N1CCN(c2ccc(Cl)cc2)CC1)C(C)C	-31.05%	-7.284%
Cc1cccc(CN2CCC3(CCN(c4cccnc4)C3=O)C2)n1.O=C(O)C(F)(F)F.O=C(O)C(F)(F)F (centres unmarked)	-6.888% & -4.18%	-15.88%
[H][C@@]12C[C@H](NC(=O)c3cccc4[nH]c(C)nc34)CN1CCN(C)C2	0.3489%	-3.71%
CCN1CCCN(S(=O)(=O)c2cc3ccccc3o2)CC1	9.98% & 0.7767%	20.09%
Cc1nc(N[C@H]2COC[C@@H]2N2CCCCC2)c2c(C)nn(C)c2n1	-11.75%	-1.793%
COCCN1CCC2(CC1)CN(CCn1cccn1)C(=O)CO2.O=C(O)C(F)(F)F	-5.556% & -21.09%	-17.17%
COc1ccc(C)cc1-n1ccc(C(=O)NCC2CCCOC2)n1 (centres unmarked)	-0.5458% & 15.01%	7.518%
O=c1cc(-c2ccncc2)nc(-c2ccc(CN3CC[C@@H](O)C3)cc2)[nH]1	-11.83%	-3.231% & 2.902%
CC1=C(c2ccc(C)cc2)S(=O)(=O)N=C1N1CCc2ccccc21	6.569%	-9.29%
Cc1nc(O)cc(C2CCCN(C(=O)c3cccc(N(C)C)c3)C2)n1 (centres unmarked)	-12.79%	-26.52%
CCCc1nnc(NCCc2noc(C3CCC3)n2)o1	8.351%	7.031%
CN(C)C(=O)c1n[nH]c2c1CCN(Cc1nccs1)C2	-5.274% & -30.87%	-23.67% & -5.064%
Cc1cccc2nc(-c3nc4c([nH]3)CCCNC4=O)cn12	-16.05%	-16.69%
CCN(CC)C1CCN(c2ncnc3c2CCN(C(=O)C2CC2)C3)C1 (centres unmarked)	14.18% & -0.08199%	5.165%
CC(C)CNC(=O)c1ccc(NC(=O)NC(C)(C)CO)cc1Cl	-21.82% & -6.326%	-15.36%
CCN(C(c1cccnc1)c1ccc2c(c1)CCO2)S(C)(=O)=O (centres unmarked)	4.197%	-8.557%
CNc1nc2c(c(C(=O)N3CCCC3)n1)CN(C(=O)c1cccs1)CC2	-20.82%	-7.374%
COC(C)(C)CC(C)NCc1nncn1C1CCCCC1 (centres unmarked)	0.09307%	-22.72%
CC(NC(=O)c1ccc(=O)n(C)c1)c1ccc(OCC2CC2)c(F)c1 (centres unmarked)	4.168%	4.398%
Cc1ccc(CN2CCn3cc(CN(C)Cc4ccco4)nc3C2)o1.O=C(O)C(F)(F)F.O=C(O)C(F)(F)F	34.52%	14.15%
Nc1cc(N2CCCC(COc3ccc(F)cc3)C2)nc(N)n1 (centres unmarked)	12.26%	12.36%

Once more, the final 5:

CNc1nc2c(c(C(=O)N3CCCC3)n1)CN(C(=O)c1cccs1)CC2 gave A: -20.82%; B: -7.374%.
COC(C)(C)CC(C)NCc1nncn1C1CCCCC1 (centres unmarked) gave A: 0.09307%; B: -22.72%.
CC(NC(=O)c1ccc(=O)n(C)c1)c1ccc(OCC2CC2)c(F)c1 (centres unmarked) gave A: 4.168%; B: 4.398%.
Cc1ccc(CN2CCn3cc(CN(C)Cc4ccco4)nc3C2)o1.O=C(O)C(F)(F)F.O=C(O)C(F)(F)F gave A: 34.52%; B: 14.15%.
Nc1cc(N2CCCC(COc3ccc(F)cc3)C2)nc(N)n1 (centres unmarked) gave A: 12.26%; B: 12.36%.